From paper PMC4010427, “Structural and Functional Similarity of Amphibian Constitutive Androstane Receptor with Mammalian Pregnane X Receptor” (PLoS ONE, 2014) come the findings set out here.

Chains of the proteins cited; added tags and fusions are not shown. Residues count along the entry.
UniProt Q15788, residues 583-783: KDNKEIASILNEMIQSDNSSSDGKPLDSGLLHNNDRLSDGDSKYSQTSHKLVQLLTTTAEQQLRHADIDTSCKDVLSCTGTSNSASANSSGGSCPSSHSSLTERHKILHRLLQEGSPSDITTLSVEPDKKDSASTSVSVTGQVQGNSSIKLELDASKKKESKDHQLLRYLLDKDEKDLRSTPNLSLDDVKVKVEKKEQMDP

For experiment [1], the target named is GST-tagged SRC-1 RID protein (recombinant human SRC-1, amino acids 583–783) (UniProt Q15788). Description: pull-down; CARLA as above, in the presence of the indicated concentrations of pregnanedione (dose response); only the target purified.
For experiment [2] the target is unchanged. As to the kind of experiment: pull-down; CARLA: 3–5 µg GST-tagged SRC-1 RID on glutathione-sepharose 4B beads, 2 µl 35S-labelled in vitro translated CAR protein, NETN (100 mM NaCl, 1 mM EDTA, 1 mM DTT, 20 mM Tris-Cl pH 8.0, 0.5% Nonidet P40) with 0.5% skimmed milk powder, over night at 4°C; 1% solvent DMSO only (no ligand); only the target purified.

Results are given in words; binding and its absence hold for the method and conditions named. Binding seen in cells or lysates may run through a third protein. Some binding calls cover weakened binding; strength is not graded here.

B1: full-length human CAR1 protein, 35S-labelled (protein, UniProt Q14994-2 1-348)
chain: MASREDELRNCVVCGDQATGYHFNALTCEGCKGFFRRTVSKSIGPTCPFAGSCEVSKTQRRHCPACRLQKCLDAGMRKDMILSAEALALRRAKQAQRRAQQTPVQLSKEQEELIRTLLGAHTRHMGTMFEQFVQFRPPAHLFIHHQPLPTLAPVLPLVTHFADINTFMVLQVIKFTKDLPVFRSLPIEDQISLLKGAAVEICHIVLNTTFCLQTQNFLCGPLRYTIEDGARVGFQVEFLELLFHFHGTLRKLQLQEPEYVLLAAMALFSPDRPGVTQRDEIDQLQEEMALTLQSYIKGQQRRPRDRFLYAKLLGLLAELRSINEAYGYQIQHIQGLSAMMPLLQEICS
modifications: 35S-methionine labelled
As for B1, the binding entry in experiment [1] and in experiment [2] was “binds” throughout.
